Some of these results come from one statement about several compounds together.
What was measured:
[1] = tested on: IL-8 production; test: P. acnes-induced IL-8 production in HaCaT keratinocytes (ELISA); format: cell-based, human; settings: 24 h pre-treatment, comparison with acne drugs (FIG. 8A)
Method: Bacterial strain and conditions of growth. P. acnes strain 6919 was obtained from the American Type Culture Collection (Manassas, Va.) and P. acnes strains RON and PIE were isolated from patient with joint infection. All strains were grown under anaerobic conditions in reinforced clostridial liquid and solid medium (RCM) (Difco Laboratories, Detroit, Mich.). P. acnes was transferred from the bacterial stock onto RCM agar plate and incubated for 5 days under anaerobic condition by using a GasPak™ EZ Anaerobic Container System (Becton Dickinson & Co, Sparks Md., USA). A single colony was transferred into 100 ml RCM and grown as described above. […]
ELISA. Human IL-1β, IL-8, hBD-2 and TNF-α protein concentration were measured in the supernatants of stimulated cells using various ELISA Sets (all from Ready-Set-Go from eBioscience, except hBD-2 measurements: Human DEFB4A/BD-2 ELISA Kit from LSBio) according to the manufacturer's instructions. […] The optical density was determined at 450 nm at a wavelength correction of 540 nm.
Both molecules, diclazuril and meclozine, were purchased separately from Sigma and tested independently on immortalized keratinocytes HaCaT cell for their capacity to inhibit the IL-8 production in a dose-dependent manner. […] The production of IL-8 was measured on culture supernatant by ELISA and the viability of cells was estimated by MTT assay (FIG. 1).

[2] = tested on: IL-8 mRNA; test: RT-qPCR of P. acnes-induced IL-8 mRNA in HaCaT cells; format: cell-based, human; settings: 10 μM, 24 h pre-treatment, 5 h P. acnes

Cc1cccc(CN2CCN(C(c3ccccc3)c3ccc(Cl)cc3)CC2)c1 (stereo not drawn) [meclozine, Meclozine]
decrease of IL-8 production at 6.25 μM [1]: > 60%

N#CC(c1ccc(Cl)cc1)c1c(Cl)cc(-n2ncc(=O)[nH]c2=O)cc1Cl (stereo not drawn) [diclazuril, Diclazuril]
decrease of IL-8 production at 6.25 μM [1]: > 60%
inhibition of IL-8 mRNA production [2]: up to 97%
